Screen size: about 290,000 compounds; about 570 (0.2%) were called active. Inconclusive means that the source gave no clear call. Such entries were picked first, then a sample of the others. No stated cut-off is given here; in the data, active means inhibition mostly above about 51% (no sharp cut-off); inconclusive means no clear call, values can overlap the other calls; inactive means mostly below about 53%.
Biological target: Voltage-dependent N-type calcium channel subunit alpha-1B (Homo sapiens) (UniProt Q00975)
Experiment: disruptors of CaV2.2 binding to Mint1 – biochemical, HTRF (AID 2073)
Conditions: HTRF protein-protein interaction, Mint1-CaV2.2; at 20 µM; hits give high values

Protein sequences, listed by entry. Tags and fused reporters are not part of them.
UniProt Q00975, whole entry, looked up: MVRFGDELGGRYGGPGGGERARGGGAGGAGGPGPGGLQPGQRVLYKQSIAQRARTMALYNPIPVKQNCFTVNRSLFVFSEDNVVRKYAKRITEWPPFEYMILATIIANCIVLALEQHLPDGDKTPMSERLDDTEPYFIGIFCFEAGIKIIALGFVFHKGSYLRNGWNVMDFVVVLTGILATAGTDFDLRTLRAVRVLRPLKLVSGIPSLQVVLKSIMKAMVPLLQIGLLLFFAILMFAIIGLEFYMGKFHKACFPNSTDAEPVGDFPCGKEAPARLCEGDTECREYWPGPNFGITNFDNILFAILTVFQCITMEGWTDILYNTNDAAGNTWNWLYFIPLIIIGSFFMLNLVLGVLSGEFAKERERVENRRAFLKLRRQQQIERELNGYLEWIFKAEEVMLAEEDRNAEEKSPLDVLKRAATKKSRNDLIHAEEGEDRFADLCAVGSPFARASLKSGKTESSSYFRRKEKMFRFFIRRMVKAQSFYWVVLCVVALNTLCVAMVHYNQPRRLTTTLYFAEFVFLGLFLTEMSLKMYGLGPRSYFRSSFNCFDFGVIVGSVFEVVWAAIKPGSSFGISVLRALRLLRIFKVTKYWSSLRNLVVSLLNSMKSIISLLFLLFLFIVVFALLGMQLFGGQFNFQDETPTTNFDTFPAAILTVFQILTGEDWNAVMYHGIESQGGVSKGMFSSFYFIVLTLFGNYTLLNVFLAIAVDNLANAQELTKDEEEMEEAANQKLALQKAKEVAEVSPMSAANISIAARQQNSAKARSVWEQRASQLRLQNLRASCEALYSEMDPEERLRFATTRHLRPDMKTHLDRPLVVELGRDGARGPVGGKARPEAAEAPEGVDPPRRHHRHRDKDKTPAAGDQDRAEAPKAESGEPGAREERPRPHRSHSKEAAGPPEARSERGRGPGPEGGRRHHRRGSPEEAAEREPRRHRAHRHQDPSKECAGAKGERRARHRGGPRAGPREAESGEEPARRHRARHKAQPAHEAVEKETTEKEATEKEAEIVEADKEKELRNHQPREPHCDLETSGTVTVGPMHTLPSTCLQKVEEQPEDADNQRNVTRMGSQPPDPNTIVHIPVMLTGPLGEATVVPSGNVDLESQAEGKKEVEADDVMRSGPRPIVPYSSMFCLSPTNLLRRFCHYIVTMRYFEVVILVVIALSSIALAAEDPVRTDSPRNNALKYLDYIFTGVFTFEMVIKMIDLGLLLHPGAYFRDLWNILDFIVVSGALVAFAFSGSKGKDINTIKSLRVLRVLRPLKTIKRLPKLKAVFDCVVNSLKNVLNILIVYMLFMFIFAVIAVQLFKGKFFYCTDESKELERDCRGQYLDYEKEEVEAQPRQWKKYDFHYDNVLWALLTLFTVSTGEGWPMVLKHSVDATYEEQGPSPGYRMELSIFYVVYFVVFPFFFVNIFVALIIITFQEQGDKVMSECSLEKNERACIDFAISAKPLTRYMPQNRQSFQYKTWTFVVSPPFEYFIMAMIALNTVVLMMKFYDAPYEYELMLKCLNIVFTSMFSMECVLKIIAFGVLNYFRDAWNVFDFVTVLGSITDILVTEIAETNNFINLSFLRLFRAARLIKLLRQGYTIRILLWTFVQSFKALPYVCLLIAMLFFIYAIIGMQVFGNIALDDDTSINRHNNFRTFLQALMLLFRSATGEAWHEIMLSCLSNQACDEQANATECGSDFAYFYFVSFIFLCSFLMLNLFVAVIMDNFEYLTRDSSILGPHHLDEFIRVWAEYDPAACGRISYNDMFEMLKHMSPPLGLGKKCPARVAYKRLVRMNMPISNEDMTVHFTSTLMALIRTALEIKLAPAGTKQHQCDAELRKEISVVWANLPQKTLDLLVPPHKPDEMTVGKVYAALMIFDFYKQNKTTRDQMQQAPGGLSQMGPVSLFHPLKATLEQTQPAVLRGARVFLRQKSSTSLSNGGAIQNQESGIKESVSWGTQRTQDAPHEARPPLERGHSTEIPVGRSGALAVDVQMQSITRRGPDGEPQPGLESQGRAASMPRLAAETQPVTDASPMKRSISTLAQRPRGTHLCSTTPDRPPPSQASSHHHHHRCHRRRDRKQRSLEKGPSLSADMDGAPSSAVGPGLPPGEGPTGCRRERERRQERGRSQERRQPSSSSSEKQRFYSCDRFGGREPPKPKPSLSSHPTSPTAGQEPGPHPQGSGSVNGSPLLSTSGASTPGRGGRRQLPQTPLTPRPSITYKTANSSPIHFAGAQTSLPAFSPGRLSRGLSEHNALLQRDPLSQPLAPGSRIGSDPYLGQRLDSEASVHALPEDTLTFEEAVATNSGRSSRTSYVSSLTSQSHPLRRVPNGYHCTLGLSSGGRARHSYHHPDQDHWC

SMILES	inhibition
CCN(CCO)c1nc(SC)nc2c1sc1nc(-c3ccco3)c3c(c12)CCC3	inconclusive: 62.6%
O=C(O)C=C1CCN(c2ncc(C(F)(F)F)cc2Cl)CC1	inactive: 13.7%
CCc1nnc(NS(=O)(=O)c2ccc(NCc3cc(Br)ccc3O)cc2)s1	inactive: -6.2%
COCCNC(=O)c1ccc(N2CCC3(CC2)OCCO3)c([N+](=O)[O-])c1	inconclusive: 83%
COc1cccc(NC(=O)c2ccco2)c1	inactive: 3.2%
Cc1cc([N+](=O)[O-])c2c(c1C)C1C=CCC1C(c1ccccn1)N2 (configuration not stated)	inactive: 42.9%
C=CCNC(=O)c1onc(CSc2cc(C)cc(C)c2)c1C(=O)NCC=C	inconclusive: 65.7%
COC(=O)CN1C(=O)C(C)(C)Oc2ccc(C(=O)NC3CC3)cc21	inconclusive: 53.8%
O=C(NCCN1CCCC1)c1ccc2c(=O)n(CCc3ccccc3)c(=O)[nH]c2c1	inconclusive: 90.7%
CCOC(=O)CSc1nc(N)c(C#N)c(-c2ccc(OC)cc2)c1C#N	inconclusive: 60.3%
Cc1cc(C)c2nc(NC(=O)c3cccc(S(=O)(=O)N4CCc5ccccc54)c3)sc2c1	inactive: 6.3%
c1c(CC2CCCC2)nnn1C[C@H]1CC[C@@H]([C@@H]2CC[C@H](Cn3cc(CC4CCCC4)nn3)O2)O1	inconclusive: 69.1%
CC(C)Cc1nnc(NC(=O)Cc2cccs2)s1	inconclusive: 71.7%
Cc1ccc(N2C(=O)CC(N3CCN(c4ccccn4)CC3)C2=O)cc1 (configuration not stated)	inconclusive: 62%
Cc1cnc(-c2nnc(N(C)C(=O)c3ccccn3)s2)cn1	inconclusive: 81.5%
O=C(N/N=C/c1ccc(O)c(O)c1)c1cccc(S(=O)(=O)N2CCCCC2)c1	inconclusive: 56.2%
O=C(O)CCn1cc(C2CC(c3ccccc3)=NN2c2ccccc2)c(-c2ccccc2)n1 (configuration not stated)	inconclusive: 59.7%
O=C(Nc1ccc(Cl)cc1)N1CCOC12CCCCC2	inactive: -2.6%
O=C(CN(c1cccc(Cl)c1)S(=O)(=O)c1ccc(Cl)cc1)NCc1ccccn1	inconclusive: 61.1%
O=C(NN1C(=O)C2C3C=CC(C3)C2C1=O)c1ccccc1 (configuration not stated)	inconclusive: 54.8%
O=C(NCC(F)(F)F)Nc1ncccn1	inconclusive: 81.5%
Fc1ccc(OCCCCN2CCOCC2)cc1	inconclusive: 81.7%

SMILES	inhibition
COCc1cc(C)nc(OCC(=O)N/N=C/c2cccc(OC)c2)c1C#N	inconclusive: 70.1%
O=C(CNC(=O)c1ccncc1)N/N=C/c1ccc(Br)cc1	inconclusive: 92.2%
Fc1ccc(-c2cc(C(F)(F)F)nc(-n3cncn3)n2)cc1	inconclusive: 84.5%
CN(C(=O)Cc1c(C(=O)O)n(C)c2ccccc12)c1ccc(Cl)cc1	inconclusive: 68.1%
Cn1nc(C(=O)Nc2cccc(C(F)(F)F)c2)ccc1=O	inconclusive: 67.3%
COc1ccc(CC(=O)O/N=C(\N)Cc2cccc3ccccc23)cc1	inconclusive: 62.5%
O=S(=O)(c1ccccc1)N1N=C(c2ccc(O)cc2)CC1c1ccco1 (configuration not stated)	inconclusive: 54.4%
CCOC(=O)c1sc2nc3c(SCC(=O)O)cc(C(=O)c4cc(F)ccc4O)cn3c(=O)c2c1C	inactive: 18.6%
Cc1cccc[n+]1C1C(c2ccc([N+](=O)[O-])cc2)C(C#N)=C(C(=C=[N-])C#N)NC1(O)C1CC1 (configuration not stated)	inconclusive: 64.9%
COc1ccc(/C=C(\NC(=O)c2cccs2)C(=O)Nc2cccc3ccccc23)cc1OC	inconclusive: 67.4%
CCOC(=O)c1cc2c(=O)n3ccccc3nc2n(Cc2ccco2)c1=NC(=O)c1ccccc1OC	inactive: 10.2%
N#C/C(=C\c1cccs1)C(=O)N1CCOCC1	inconclusive: 57%
COc1cccc(/C=N/NC(=O)CN2C(=O)NC3NC(=O)NC32)c1 (configuration not stated)	inconclusive: 61.7%
C=CCNc1oc(/C=C/c2ccccc2)nc1C#N	inconclusive: 50.2%
CCOc1ccc(CCNC(=O)Cn2nc(C)c3c(C)n(-c4ccccc4)nc3c2=O)cc1OCC	inconclusive: 98.4%
Cc1cccc(-c2nc(Nc3cccc(O)c3)c3ccccc3n2)c1	inconclusive: 83.8%
COC(=O)Nc1nc2ccc(-c3n[nH]c(=O)c4ccccc34)cc2[nH]1	inactive: -0.4%
O=C(CSc1ccccc1)N(c1ccc(Br)cc1)c1nccs1	inconclusive: 53.2%
Cc1ccc(-n2c(-c3ccco3)nc3nc4ccccc4nc32)cc1	inconclusive: 50.1%
CC(=O)Nc1ccc(S(=O)(=O)N2CCN(S(=O)(=O)N3CCOCC3)CC2)cc1	inactive: -2.3%
COc1cc(/C=C/c2ccc3cccc(O)c3n2)ccc1O	inactive: 21.1%
CCOc1ccc(OC(=O)C(CCS(C)(=O)=O)N2C(=O)c3ccccc3C2=O)cc1 (configuration not stated)	inconclusive: 71.4%

Part of the list above, in CSV form:
SMILES,inhibition
O=C(CNC(=O)c1ccncc1)N/N=C/c1ccc(Br)cc1,inconclusive: 92.2%
Cn1nc(C(=O)Nc2cccc(C(F)(F)F)c2)ccc1=O,inconclusive: 67.3%
COc1ccc(/C=C(\NC(=O)c2cccs2)C(=O)Nc2cccc3ccccc23)cc1OC,inconclusive: 67.4%
C=CCNc1oc(/C=C/c2ccccc2)nc1C#N,inconclusive: 50.2%
Cc1cccc(-c2nc(Nc3cccc(O)c3)c3ccccc3n2)c1,inconclusive: 83.8%
COC(=O)Nc1nc2ccc(-c3n[nH]c(=O)c4ccccc34)cc2[nH]1,inactive: -0.4%
CC(=O)Nc1ccc(S(=O)(=O)N2CCN(S(=O)(=O)N3CCOCC3)CC2)cc1,inactive: -2.3%

(next part)

SMILES	inhibition
O=C(Nc1ccc(Cl)cc1-c1nc2ccccc2s1)c1ccco1	inconclusive: 66.8%
COc1cc2c(cc1NC(=O)C(C)OC(=O)c1ccc(S(=O)(=O)Nc3ccccc3Cl)cc1)oc1ccccc12 (configuration not stated)	active: 56.6%
Cc1cc(C)c(NC(=O)COc2ccccc2C(=O)Nc2ccc3c(c2)oc2ccccc23)c(C)c1	inconclusive: 56.1%
CCC(=O)Nc1ccc(C(=O)CSc2nc3ccccc3[nH]2)cc1	active: 54.5%
Cc1ccc(NC(=O)CN2C(=O)S/C(=C\c3ccc(-c4cccc(C(=O)O)c4C)o3)C2=O)cc1	inactive: 7.6%
COCCn1c(C)cc(C(=O)COc2cccnc2[N+](=O)[O-])c1C	inactive: -4%
Cc1ccc(/C=C/c2nc3ccccc3[nH]2)o1	inactive: 44.8%
Cc1ccccc1C(=O)Nc1cccc(NC(=O)Cn2cnc3c(=O)n(C)c(=O)n(C)c32)c1	inconclusive: 66.5%
COc1cccc2c(=O)c3cccc(N)c3[nH]c12	active: 52.3%
O=C(c1ccc(Cl)s1)N1CCN(C23CC4CC(CC(C4)C2)C3)CC1	inconclusive: 53.7%
OCCNc1nc(-c2ccccc2)c2cc(Cl)ccc2n1	inactive: 15.1%
O=C(/C(=N/N=C/c1ccc(O)c(O)c1O)c1ccccc1)c1ccccc1	active: 66.2%
O=S1(=O)CCC(n2nccc2-c2ccccc2)C1 (configuration not stated)	inactive: -2.9%
CCn1cc(-c2cc(C(F)(F)F)n3nc(C(=O)O)cc3n2)c(C)n1	inconclusive: 60.4%
CC(C)n1nc(C(=O)N2CCN(S(=O)(=O)c3cccs3)CC2)c2ccccc2c1=O	inactive: -6.3%
Cc1cccc(N2CCN(C(=O)CCCCCn3c(=S)[nH]c4ccc(N5CCOCC5)cc4c3=O)CC2)c1C	inconclusive: 55.1%
CC(C)(C)c1cc(C(=O)NN)n(Cc2ccc(Cl)cc2Cl)n1	inconclusive: 64.7%
O=S(=O)(NCc1ccccc1)NCc1ccccc1	inactive: 0.7%
COCCn1c(Sc2ccccc2)nc2c1c(=O)[nH]c(=O)n2C	inconclusive: 88.6%
O=[N+]([O-])c1ccc(N/N=C/c2ccc(O)c(O)c2O)c(S(=O)(=O)N2CCOCC2)c1	inconclusive: 78.3%
O=C(COc1ccc(S(=O)(=O)N2CCCC2)cc1Cl)N1CCN(c2ccccc2)CC1	inconclusive: 52.1%
O=c1cc2oc3cc(O)c(O)cc3c(-c3ccccc3[N+](=O)[O-])c-2cc1O	inactive: 15.9%

SMILES	inhibition
Cc1cc(C)cc(C(N)=Nc2cccc(C#N)c2)c1	inactive: 4.9%
CCOC(=O)C1(Cc2ccccc2C)CCCN(C(=O)c2ccoc2)C1 (configuration not stated)	inactive: 14.3%
COc1ccc(NC(=O)CC2Nc3cccc4cccc(c34)NC2=O)cc1 (configuration not stated)	inconclusive: 78.3%
N#Cc1c(N)n(-c2cccc(O)c2)c2nc3ccccc3nc12	inconclusive: 59.1%
CCn1cc(C(=O)O)c(=O)c2cc(F)c(N/N=C/c3ccccc3[N+](=O)[O-])cc21	active: 58.8%
O=C(CSc1nc2sc3c(c2c(=O)[nH]1)CCC3)NCCO	inconclusive: 57.3%
COc1ccc(/C(O)=C2\C(=O)C(=O)N(CCN3CCOCC3)C2c2ccccc2OC)cc1 (configuration not stated)	inconclusive: 97.6%
CCOC(=O)c1ccc(NC(=O)C(=O)NCc2ccco2)cc1	inconclusive: 59.2%
CCc1nc(SCC(=O)Nc2cc(C)on2)c2c(C)c(C)sc2n1	inconclusive: 50.8%
CCN(CC)S(=O)(=O)c1ccc(C(=O)Nc2ccc3c(c2)OCO3)cc1	inactive: 9.9%
COc1cc(C(=O)N/N=C/c2sc(N3CCOCC3)nc2-c2ccccc2)cc(OC)c1OC	inactive: 4.4%
CCSC1=C(C#N)C(c2cccs2)C(C(=O)OC)=C(C)N1 (configuration not stated)	inconclusive: 52.1%
CC1(C)CC(=O)C(C=NCc2ccc3c(c2)OCO3)=C(O)C1	inconclusive: 74%
CCC1C(=O)CC(c2ccco2)NC1c1ccco1 (configuration not stated)	inconclusive: 53.6%
CC(=O)c1cc(C#N)c(Oc2cccc(C(F)(F)F)c2)nc1C	inconclusive: 50.7%
Cc1ccc(C(=O)O)cc1-c1ccc(/C=C2\SC(=O)N(CC(=O)Nc3ccccc3)C2=O)o1	inactive: 24%
COc1ccccc1NC(=O)c1sc2nc(Cc3ccccc3)cc(C(F)(F)F)c2c1N	inconclusive: 54.7%
CC(=O)Nc1ccc2c(CN3C(=O)NC(C)(c4ccc(C)cc4)C3=O)cc(=O)oc2c1 (configuration not stated)	inconclusive: 71.4%
O=C(Cc1c(O)c2ccccc2[nH]c1=O)OC1CCCCC1	inconclusive: 67.7%
Cc1ccc(C)c(S(=O)(=O)N/N=C/c2ccc(N3CCOCC3)cc2)c1	inconclusive: 63.4%
CC(=O)Nc1cc(NC(C)=O)c(CC(C)C)s1	inconclusive: 58.7%

Reference: PubChem BioAssay AID2073 (Sanford-Burnham Center for Chemical Genomics, 2009)
